No constants are given. Whether binding was seen depends on the method and setting. In cells and extracts the contact can be indirect. Some results given as binding are weak or reduced against the parent protein; the word gives no strength.
Biological target: ATP synthase subunit a (ATP5A), rat (rat (endogenous in rat liver)) (UniProt P15999)
Test: co-IP; anti-ATP5A antibody on Dynabeads (Dynabeads Co-Immunoprecipitation Kit), rat liver lysate (text: mitochondria isolated from rat liver tissue); detection by Western blot

Sequences of proteins named here, by UniProt entry; tags and fusion partners are left off. Residues count along the entry.
UniProt P15999, residues 44-553: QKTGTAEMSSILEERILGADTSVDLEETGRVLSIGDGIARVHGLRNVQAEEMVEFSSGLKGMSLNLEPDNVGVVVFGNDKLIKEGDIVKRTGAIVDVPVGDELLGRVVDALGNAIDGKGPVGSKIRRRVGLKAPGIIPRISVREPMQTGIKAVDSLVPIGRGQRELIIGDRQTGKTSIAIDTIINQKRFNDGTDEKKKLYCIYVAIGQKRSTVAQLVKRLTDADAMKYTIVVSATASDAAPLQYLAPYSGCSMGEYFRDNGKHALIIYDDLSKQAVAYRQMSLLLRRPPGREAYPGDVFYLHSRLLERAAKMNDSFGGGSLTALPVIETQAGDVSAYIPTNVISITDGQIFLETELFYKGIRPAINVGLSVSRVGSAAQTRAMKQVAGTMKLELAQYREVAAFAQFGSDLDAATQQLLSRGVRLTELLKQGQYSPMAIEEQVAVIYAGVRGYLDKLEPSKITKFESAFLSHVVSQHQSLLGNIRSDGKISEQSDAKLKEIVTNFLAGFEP
UniProt P02091: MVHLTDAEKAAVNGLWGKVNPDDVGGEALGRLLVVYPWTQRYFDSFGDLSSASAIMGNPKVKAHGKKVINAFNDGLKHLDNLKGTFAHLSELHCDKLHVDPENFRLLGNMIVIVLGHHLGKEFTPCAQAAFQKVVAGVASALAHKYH

binding: binds
Substance: Haemoglobin beta, rat (from UniProt P02091 1-147)

— paper PMC10047868
